This note sets out measurements from the supplement of paper PMC6331611.

Where a name gives a salt, the structure may show the parent alone. ± gives the standard deviation of the averaged measurements. The full ranking holds about 1,600 compounds; the median of “normalized intracellular growth (luminescence, IQM-normalized) in RAW264.7 macrophages” is about 1, and the lowest 2% start at about 0.43. This is one part of the list.

In this test the test system is Salmonella enterica serovar Typhimurium SL1344. The test is described as follows: normalized intracellular growth (luminescence, IQM-normalized) in RAW264.7 macrophages (fraction of plate interquartile mean); higher = more bacterial growth (less inhibition). Conditions: 10 µM.

For `CC(C)(CO)[C@@H](O)C(=O)NCCC(=O)O` [PANTOTHENIC ACID(d) Na salt], the normalized intracellular growth runs as follows: (time point: T3 (3 h)) 1.02 ± 0.15; (time point: Tfinal (~6 h)) 1.04 ± 0.2.

With `CCN(CC)C(=O)C1(c2ccccc2)CC1CN` (stereo not drawn), the normalized intracellular growth by setting is: (time point: T3 (3 h)) 0.959 ± 0.0089; (time point: Tfinal (~6 h)) 1.11 ± 0.052.

`Cc1cc(C(C)(C)C)cc(C)c1CC1=NCCN1`: the normalized intracellular growth came to 0.9935 ± 0.0047 (time point: T3 (3 h)) and 0.994 ± 0.053 (time point: Tfinal (~6 h)).

As to `CCN(CCCCOC(=O)c1ccc(OC)c(OC)c1)C(C)Cc1ccc(OC)cc1` (stereo not drawn), the normalized intracellular growth is, setting by setting: (time point: T3 (3 h)) 1.05 ± 0.041; (time point: Tfinal (~6 h)) 0.957 ± 0.049.

Regarding `CCN(CC)CCOCCOC(=O)C1(c2ccccc2)CCCC1`, the normalized intracellular growth by setting is: (time point: T3 (3 h)) 1.01 ± 0.028; (time point: Tfinal (~6 h)) 1.13 ± 0.19.

With `CC#CCn1c(N2CCC[C@@H](N)C2)nc2c1c(=O)n(Cc1nc(C)c3ccccc3n1)c(=O)n2C`, the normalized intracellular growth reads like this: (time point: T3 (3 h)) 1.03 ± 0.054; (time point: Tfinal (~6 h)) 1.2 ± 0.078.

With `O=C(O)c1ccc[n+]([O-])c1`, the normalized intracellular growth reads like this: (time point: T3 (3 h)) 0.967 ± 0.051; (time point: Tfinal (~6 h)) 1.05 ± 0.023.

Take `NC[C@H]1O[C@H](O[C@H]2[C@H](O)[C@@H](O[C@H]3O[C@H](CO)[C@@H](O)[C@H](N)[C@H]3O)[C@H](N)C[C@@H]2N)[C@H](N)C[C@@H]1O`: the normalized intracellular growth by setting is: (time point: T3 (3 h)) 1.06 ± 0.055; (time point: Tfinal (~6 h)) 1.04 ± 0.074.

For the molecule `CCOC(=O)Nc1nc2ccccc2[nH]1`, the normalized intracellular growth amounted to 0.752 ± 0.1 (time point: T3 (3 h)) and 1.17 ± 0.12 (time point: Tfinal (~6 h)).

As to `CN(C)C(=N)NC(=N)N`, the normalized intracellular growth runs as follows: (time point: T3 (3 h)) 1.02 ± 0.025; (time point: Tfinal (~6 h)) 1.05 ± 0.023.

Take `NCCCCCC(=O)O`: the normalized intracellular growth by setting is: (time point: T3 (3 h)) 0.962 ± 0.063; (time point: Tfinal (~6 h)) 1.06 ± 0.13.

For `CNCCc1ccccn1`, the normalized intracellular growth (time point: T3 (3 h)) stood at 0.9551 ± 0.0034 and the normalized intracellular growth (time point: Tfinal (~6 h)) is 0.965 ± 0.033.

As for `CC1=C(C)C(=O)C(C(CCCCCC(=O)O)c2ccccc2)=C(C)C1=O` (stereo not drawn), the normalized intracellular growth came to 0.994 ± 0.042 (time point: T3 (3 h)) and 1.18 ± 0.085 (time point: Tfinal (~6 h)).

As to `CC=CC(=O)N(CC)c1ccccc1C`, the normalized intracellular growth by setting is: (time point: T3 (3 h)) 1.09 ± 0.047; (time point: Tfinal (~6 h)) 1.14 ± 0.05.

In the case of `CC1CC2C3CCC4=CC(=O)C=CC4(C)C3(F)C(O)CC2(C)C1C(=O)CO` (stereo not drawn), the normalized intracellular growth is, setting by setting: (time point: T3 (3 h)) 0.923 ± 0.035; (time point: Tfinal (~6 h)) 0.988 ± 0.15.

On to `CCCCCCCCCCCCCCCC(=O)OC[C@H](O)[C@H]1OC(=O)C(O)=C1O`, for which the normalized intracellular growth by setting is: (time point: T3 (3 h)) 0.947 ± 0.02; (time point: Tfinal (~6 h)) 0.972 ± 0.077.

Consider `Nc1nc2c(ncn2COC(CO)CO)c(=O)[nH]1`, for which the normalized intracellular growth came to 0.973 ± 0.038 (time point: T3 (3 h)) and 1.04 ± 0.17 (time point: Tfinal (~6 h)).

For `Clc1cccc(Cl)c1NC1=NCCN1`, the normalized intracellular growth reads like this: (time point: T3 (3 h)) 1 ± 0.034; (time point: Tfinal (~6 h)) 0.772 ± 0.087.

Take `C[C@]12C=CC(=O)N[C@@H]1CC[C@@H]1[C@@H]2CC[C@]2(C)[C@@H](C(=O)Nc3cc(C(F)(F)F)ccc3C(F)(F)F)CC[C@@H]12`: the normalized intracellular growth is 1.01 ± 0.021 (time point: T3 (3 h)) and 1.06 ± 0.14 (time point: Tfinal (~6 h)).

As for `CO[C@H]1/C=C/O[C@@]2(C)Oc3c(C)c(O)c4c(O)c(c5c(nc6cc(C)ccn65)c4c3C2=O)NC(=O)/C(C)=C\C=C\[C@H](C)[C@H](O)[C@@H](C)[C@@H](O)[C@@H](C)[C@H](OC(C)=O)[C@@H]1C`, the normalized intracellular growth is 0.993 ± 0.022 (time point: T3 (3 h)) and 1 ± 0.027 (time point: Tfinal (~6 h)).

On to `Cc1cc(O)c(C(=O)N[C@@H](C(=O)N[C@@H]2C(=O)N3C(C(=O)O)=C(CSc4nnnn4C)CS[C@H]23)c2ccc(O)cc2)cn1`, for which the normalized intracellular growth was 1.04 ± 0.026 (time point: T3 (3 h)) and 1.04 ± 0.23 (time point: Tfinal (~6 h)).

With `CCCNC(=O)NS(=O)(=O)c1ccc(Cl)cc1`, the normalized intracellular growth is, setting by setting: (time point: T3 (3 h)) 0.923 ± 0.032; (time point: Tfinal (~6 h)) 0.943 ± 0.062.

Consider `CCN(CC)C(C)CN1c2ccccc2Sc2ccccc21` (stereo not drawn), for which the normalized intracellular growth is, setting by setting: (time point: T3 (3 h)) 0.774 ± 0.014; (time point: Tfinal (~6 h)) 0.971 ± 0.038.

As to `CC(=O)O[C@]1(C(C)=O)CC[C@H]2[C@@H]3C=C(Cl)C4=CC(=O)CC[C@]4(C)[C@H]3CC[C@@]21C`, the normalized intracellular growth runs as follows: (time point: T3 (3 h)) 0.963 ± 0.021; (time point: Tfinal (~6 h)) 1.1 ± 0.065.

As to `CN(C)CCOC(c1ccccc1)c1ccccc1.Cn1c(=O)c2[nH]c(Cl)nc2n(C)c1=O`, the normalized intracellular growth runs as follows: (time point: T3 (3 h)) 1.01 ± 0.043; (time point: Tfinal (~6 h)) 1.03 ± 0.031.

`O=C1NCC2(CCN(CCc3ccccc3)CC2)O1` displayed a normalized intracellular growth (time point: T3 (3 h)) of 1.06 ± 0.08 and a normalized intracellular growth (time point: Tfinal (~6 h)) of 0.971 ± 0.11.

`Clc1ccc2c(c1)CCc1cccnc1C2=C1CCNCC1` gave a normalized intracellular growth (time point: T3 (3 h)) of 0.844 ± 0.026 and a normalized intracellular growth (time point: Tfinal (~6 h)) of 0.834 ± 0.017.

Turning to `CCCOc1ccc2[nH]c(NC(=O)OC)nc2c1`, the normalized intracellular growth runs as follows: (time point: T3 (3 h)) 0.865 ± 0.032; (time point: Tfinal (~6 h)) 1.12 ± 0.35.

`Cc1cc2nc3c(=O)[nH]c(=O)nc-3n(C[C@H](O)[C@H](O)[C@H](O)CO)c2cc1C` yielded a normalized intracellular growth (time point: T3 (3 h)) of 1.03 ± 0.025 and a normalized intracellular growth (time point: Tfinal (~6 h)) of 1.03 ± 0.078.

`O=C(c1ccc(F)cc1)C1CCN(CCn2c(=O)[nH]c3ccccc3c2=O)CC1` returned a normalized intracellular growth (time point: T3 (3 h)) of 1.01 ± 0.061 and a normalized intracellular growth (time point: Tfinal (~6 h)) of 0.869 ± 0.2.

Turning to `CCN(CC)C(=O)c1ccc(O)c(OC)c1`, the normalized intracellular growth reads like this: (time point: T3 (3 h)) 1.12 ± 0.067; (time point: Tfinal (~6 h)) 1.03 ± 0.27.

Turning to `CC(=O)[C@@]1(O)CC[C@H]2[C@@H]3CCC4=CC(=O)CC[C@]4(C)[C@H]3CC[C@@]21C`, the normalized intracellular growth is, setting by setting: (time point: T3 (3 h)) 0.923 ± 0.017; (time point: Tfinal (~6 h)) 0.905 ± 0.15.

As to `O=C1CC[C@@H](C(=O)N2CSC[C@H]2C(=O)O)N1`, the normalized intracellular growth is, setting by setting: (time point: T3 (3 h)) 1 ± 0.018; (time point: Tfinal (~6 h)) 1.06 ± 0.07.

Regarding `c1ccc(-c2ccc(C(c3ccccc3)n3ccnc3)cc2)cc1` (stereo not drawn), the normalized intracellular growth was 0.897 ± 0.075 (time point: T3 (3 h)) and 0.799 ± 0.21 (time point: Tfinal (~6 h)).

Turning to `Oc1c(Cl)cc(Cl)c2cccnc12`, the normalized intracellular growth was 1.04 ± 0.025 (time point: T3 (3 h)) and 0.951 ± 0.089 (time point: Tfinal (~6 h)).

The molecule `CN(C)CCC(c1ccc(Br)cc1)c1ccccn1` (stereo not drawn) returned a normalized intracellular growth (time point: T3 (3 h)) of 1 ± 0.056 and a normalized intracellular growth (time point: Tfinal (~6 h)) of 0.955 ± 0.56.

For `N#Cc1ccc2c(c1)N(CCCN1CCC(O)CC1)c1ccccc1S2`, the normalized intracellular growth was 1.04 ± 0.014 (time point: T3 (3 h)) and 0.869 ± 0.15 (time point: Tfinal (~6 h)).

Turning to `Nc1ncnc2c1ncn2[C@@H]1O[C@H](CO)[C@@H](O)[C@@H]1O`, the normalized intracellular growth is 1.06 ± 0.061 (time point: T3 (3 h)) and 1.04 ± 0.093 (time point: Tfinal (~6 h)).

As to `CCCCC(CC)COC(=O)CC(C(=O)OCC(CC)CCCC)S(=O)(=O)O` (stereo not drawn), the normalized intracellular growth by setting is: (time point: T3 (3 h)) 0.943 ± 0.069; (time point: Tfinal (~6 h)) 0.958 ± 0.027.

For the molecule `C[C@H]1C[C@H]2[C@@H]3CCC4=CC(=O)C=C[C@]4(C)[C@@]3(F)[C@@H](O)C[C@]2(C)[C@@]1(O)C(=O)COP(=O)(O)O`, the normalized intracellular growth by setting is: (time point: T3 (3 h)) 0.947 ± 0.011; (time point: Tfinal (~6 h)) 1.09 ± 0.058.

For the molecule `CC[C@H](C)[C@H](N)C(=O)O`, the normalized intracellular growth was 1.06 ± 0.055 (time point: T3 (3 h)) and 0.898 ± 0.2 (time point: Tfinal (~6 h)).

As to `C[C@@](Cc1ccc(O)c(O)c1)(NN)C(=O)O`, the normalized intracellular growth runs as follows: (time point: T3 (3 h)) 0.965 ± 0.038; (time point: Tfinal (~6 h)) 0.861 ± 0.058.

On to `CCOc1nc2cccc(C(=O)O)c2n1Cc1ccc(-c2ccccc2-c2nnn[nH]2)cc1`, for which the normalized intracellular growth runs as follows: (time point: T3 (3 h)) 0.992 ± 0.057; (time point: Tfinal (~6 h)) 1.04 ± 0.034.

On to `Cn1c(=O)c2c(ncn2CC2OCCO2)n(C)c1=O`, for which the normalized intracellular growth came out at 1.01 ± 0.079 (time point: T3 (3 h)) and 0.998 ± 0.15 (time point: Tfinal (~6 h)).
